# Measurements: publication PMC10004598, “Identification and Characterization of a Novel Cathelicidin from Hydrophis cyanocinctus with Antimicrobial and Anti-Inflammatory Activity” (Molecules, 2023)
# What was measured:
# [1] = tested on: Escherichia coli [ATCC 25922]; test: microbe, parasite or virus in culture; details: ATCC25922
# Description: (§1) The microorganisms (Staphylococcus aureus [ATCC 25923], Escherichia coli [ATCC 25922], and Propionibacterium acnes [ATCC 6919]) were obtained from Fuxiang Biotechnology (Shanghai, China). The five strains of K. pneumoniae clinical isolates (44, 48, 49, 50, and 51) were obtained from the Department of Critical Care Medicine, Shanghai Tenth People’s Hospital.
# (§2) The antimicrobial assay was performed by broth microdilution method, following the guidelines of the Clinical and Laboratory Standards Institute. Strains (mentioned in Section 4.3) were inoculated into Mueller-Hinton broth (MH), oscillated (37 °C, 220 rpm, 12 h) to the logarithmic growth stage, and then diluted to 10^6 CFU/mL. […] Then, the absorbance was measured at 600 nm in a microplate reader (Epoch Biotek, Winooski, VT, USA). […] The minimum inhibitory concentration (MIC) was defined as the lowest concentration of an antimicrobial where there was no visible growth. After measuring the MIC, a 50 μL sample was taken from the growth well without visible bacteria, serially diluted with phosphate-buffered saline (PBS, pH = 7.0), then spread on an MH agar solid medium and incubated at 37 °C for 12 h. The number of colonies was calculated, and the minimum drug concentrations that killed 99.9% of bacteria were considered the minimum bactericidal concentration (MBC) of the peptide.
# [2] = tested on: Staphylococcus aureus [ATCC 25923]; test: microbe, parasite or virus in culture; details: ATCC25923
# Description: as §1, §2
compound,measurement,setting,value
"CC1(C)S[C@@H]2[C@H](NC(=O)[C@H](N)c3ccccc3)C(=O)N2[C@H]1C(=O)O [Ampicillin, reference compound]",MIC,[1],8 µg/mL
same,MIC,[2],0.25 µg/mL
